This note sets out measurements from PubChem BioAssay AID2685 (National Center for Advancing Translational Sciences (NCATS), 2010).

SMILES strings stand for the structures. Some of the results follow. Shown are side measurements of this screen, not its main read-out; they come without a call. Compounds called inactive in the main read-out are mostly missing here. Potencies come from curve fits of mixed quality, noted in brackets.

A short description of the assay: qHTS Assay for Lipid Storage Modulators in Drosophila S3 Cells.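 As to cell number change: cells counted by Cell Tracker Red CMTPX staining in the red channel.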 As to conditions: BODIPY lipid droplet fluorescence, 18-24 h; for cell number change: measured here: cell count max response, cells fed with added oleic acid. The method in brief: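 Laser-scanning cytometry quantifies lipid droplet accumulation (500–530 nm total intensity; droplet/cell object ratio) in oleic acid-fed (400 uM added) Drosophila S3 cells treated with a concentration series. 20 uM Triacsin C defined 100% inhibition.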

Where [1] appears, read: measured here: lipid fluorescence (Fed channel) AC50, cells fed with added oleic acid.
The mark [2] stands for this setting: measured here: cell number channel AC50, cells fed with added oleic acid.

For the compound `CCN(C(=O)/C=C/c1cc(OC)c(OC)c(OC)c1)C1CCCCC1`, the cell number change is -2.19%. Further, under setting [1], the AC50 was 0.651 µM [rising, full curve].

Turning to `Cn1c(CO)cnc1S(=O)(=O)Cc1ccc(Cl)cc1`, the cell number change is -42.7%. For the same compound, the AC50 under setting [2] is 6.51 µM [falling, full curve]. Also, under setting [1], the AC50 is 4.11 µM [falling, full curve]. Take `COc1ccccc1N1CCN(C(=O)c2sc3ncn(CC(=O)N4CCC(C)CC4)c(=O)c3c2C)CC1`: the cell number change turned out to be 3.23%. Further, the half-maximal activity concentration (AC50) under setting [2] was 0.259 µM [rising, full curve, poor fit]. The AC50 under setting [1] is 29.1 µM [falling, single point]. Turning to `Cc1ccc(Cl)cc1NC(=O)COC(=O)C1CC1`, the cell number change was found to be 12.1%. The AC50 under setting [2] was 2.59 µM [rising, single point]. In addition, under setting [1], the AC50 was 6.51 µM [rising, single point]. For `C=COCCNC(=O)Nc1ccc(Cl)cc1Cl`, the cell number change worked out at 1.08%.

With `COc1cc2nc(C3CCC3)n(NC(=O)COc3ccccc3)c(=O)c2cc1OC`, the cell number change is -5.31%. `C[C@H](NC(=O)c1ccc(Cl)cc1)C(=O)NNC(=O)c1cccs1`: the cell number change is -11.2%. `CCOc1ccc(C(C)NC(=O)C2CCC2)cc1` (stereo unspecified): the cell number change is -33.3%. Further, the AC50 under setting [2] is 29.1 µM [falling, single point].

On to `Cc1ccccc1CSc1nc2n(n1)C(c1cccs1)C1=C(CCCC1=O)N2` (stereo unspecified), for which the cell number change worked out at 9.11%. Also, the AC50 under setting [2] is 1.64 µM [rising, partial curve]. The AC50 under setting [1] was 0.731 µM [rising, single point]. Take `CCN(C(=O)c1coc(=O)c(Br)c1)c1ccc2c(c1)OCO2`: the cell number change is -13.4%. Besides, the AC50 under setting [1] was 0.146 µM [falling, full curve, poor fit]. As to `O=S(=O)(c1ccc2c(c1)OCO2)N1CCN(c2nnnn2-c2ccccc2)CC1`, the cell number change is -40.2%. Consider `COc1ccc(S(=O)(=O)N2CCOCC2)cc1NC(=O)COC(=O)C1CC2CCCC(C1)C2=O` (stereo unspecified), for which the cell number change was -6.82%. For the same compound, the concentration at half-maximal activity (AC50) under setting [1] was 4.61 µM [falling, partial curve, poor fit]. Turning to `O=C(CN1CCC(C(=O)c2ccc(Cl)cc2)CC1)Nc1ccc2c(c1)OCCO2`, the cell number change was found to be 36.4%. For the same compound, the AC50 under setting [2] was 0.231 µM [rising, full curve, poor fit].

Take `O=C(NCCC1=CCCCC1)c1ccc(Br)o1`: the cell number change is 78.8%. Moreover, the concentration at half-maximal activity (AC50) under setting [2] was 29.1 µM [rising, single point]. For the same compound, the AC50 under setting [1] is 2.06 µM [falling, partial curve]. Regarding `COc1ccc(C(=O)N=c2nc3ccccn3s2)cc1`, the cell number change came to 19%.

As to `C[C@H](Nc1ccc(C(F)(F)F)cc1[N+](=O)[O-])C(=O)O`, the cell number change was -10.7%. Further, under setting [1], the AC50 was 2.91 µM [falling, full curve, poor fit].

With `CN(C)CCCN(C(=O)c1cccs1)c1nc(-c2ccccc2)cs1`, the cell number change stood at 27.9%. Besides, the AC50 under setting [1] was 6.51 µM [rising, partial curve].

For the compound `COc1ccc(-n2cnnc2SCc2csc(-c3ccccc3)n2)cc1`, the cell number change was -14.5%. Also, the AC50 under setting [1] is 0.651 µM [rising, full curve, poor fit].

Regarding `COc1cc2nc(/C=C/c3cc(OC)c(OC)c(OC)c3)sc2cc1SC`, the cell number change is -20.6%.

As to `CSCC[C@H](N)C(=O)NCC1CCC(C(=O)Nc2ccc3c(c2)OCO3)CC1` (stereo partly specified), the AC50 under setting [1] was 29.1 µM [rising, single point]. Consider `COC(=O)c1cccc(NC(=O)CCSc2ccc(Cl)cc2)c1C`, for which the cell number change is -1.99%. The half-maximal activity concentration (AC50) under setting [1] is 2.91 µM [falling, single point]. Consider `COc1ccc(NC(=O)NC2(C(=O)N3CCN(C)CC3)CCCCC2)cc1`, for which the cell number change is -5.13%.

Regarding `Cc1ccc(S(=O)(=O)C2(C(=O)NCc3ccccc3Cl)CC2)cc1`, the cell number change was -22.7%. In addition, under setting [1], the AC50 is 2.31 µM [falling, full curve].

In the case of `O=[N+]([O-])c1cccc(S(=O)(=O)N2CCN(S(=O)(=O)N3CCOCC3)CC2)c1`, the cell number change was found to be 15%. The AC50 under setting [1] was 3.66 µM [rising, full curve]. Consider `COCCNC(=O)c1ccccc1N(Cc1ccccc1)S(=O)(=O)c1ccc(C)cc1`, for which the cell number change was found to be 5.63%. Turning to `CSc1nc(SCC(N)=O)c2c3c(sc2n1)CN(C)CC3`, the cell number change is -6.9%. Further, the AC50 under setting [1] is 0.411 µM [rising, partial curve, poor fit]. With `CN1C(=O)N(CC(=O)N2CCN(S(=O)(=O)Cc3ccccc3)CC2)C(=O)C12CCCCC2`, the cell number change is -5.77%. In addition, the AC50 under setting [1] is 29.1 µM [rising, single point]. For `CCn1c(=S)[nH]c2cc(Cl)ccc21`, the cell number change amounted to 32.5%. The AC50 under setting [2] is 4.11 µM [rising, partial curve]. As for `COc1ccccc1-n1c(CNC(=O)c2ccco2)nnc1SCC(=O)Nc1nccs1`, under setting [1], the AC50 was 0.0731 µM [rising, full curve, poor fit].

`Cc1cccc(C)c1NS(=O)(=O)c1ccc(F)cc1`: the AC50 under setting [1] is 0.731 µM [falling, full curve, poor fit]. `CCCn1c(SCc2ccc(C(=O)OC)o2)nc2ccccc2c1=O`: the AC50 under setting [1] was 6.51 µM [rising, single point]. For the compound `CC(OC(=O)c1cccc(-n2cnnn2)c1)C(=O)Nc1ccccc1F` (stereo unspecified), the AC50 under setting [2] is 6.51 µM [rising, single point]. Turning to `CCc1ccc(N(C(=O)CNC(=O)c2ccco2)C(C(=O)NC2CCCC2)c2ccncc2)cc1` (stereo unspecified), the cell number change was -2.5%. Turning to `COc1ccc(C2CC(c3ccc([N+](=O)[O-])cc3)=NN2C(C)=O)cc1` (stereo unspecified), the cell number change was determined as 0.971%. `CCN(C(=O)c1cccc(Br)c1)c1ccccc1`: the cell number change was -42.5%. For the same compound, under setting [2], the AC50 was 10.3 µM [falling, partial curve]. Also, the AC50 under setting [1] is 9.2 µM [falling, partial curve]. On to `O=C(CSc1nnc(NC(=O)CN2CCOCC2)s1)Nc1ccccc1`, for which the cell number change is -15.3%. The AC50 under setting [2] was 6.51 µM [falling, single point]. For the compound `COC(=O)c1ccccc1NC(=O)CN(c1c(C)cccc1C)S(C)(=O)=O`, the cell number change was 9.8%. Further, the AC50 under setting [1] is 29.1 µM [falling, single point]. As to `Cc1cc(C)n2nc(C(=O)OCC(=O)c3cc(C)n(C)c3C)nc2n1`, the cell number change was 92%. In addition, under setting [2], the AC50 was 23.1 µM [rising, single point]. Besides, the half-maximal activity concentration (AC50) under setting [1] was 2.59 µM [rising, single point].

On to `CCOc1cc(CNCCSc2nnnn2C)cc(Br)c1OCc1ccccc1`, for which the cell number change is -32.3%. Further, the AC50 under setting [1] is 2.06 µM [rising, partial curve]. Regarding `CC(C)Cn1c(=O)c2ccccc2n2c(CCC(=O)NCC3CCCO3)nnc12` (stereo unspecified), the cell number change is -8.06%. Moreover, the AC50 under setting [1] is 2.06 µM [falling, partial curve]. Consider `COCCCn1c(SCC(=O)Nc2ccc(C(=O)OC)cc2)nc2ccccc2c1=O`, for which the cell number change was -55.7%. Also, the AC50 under setting [2] is 29.1 µM [falling, single point]. Further, the AC50 under setting [1] was 29.1 µM [falling, partial curve]. As for `COC(=O)c1ccc(Cn2cnc3ccccc3c2=O)cc1`, the cell number change was found to be 31.3%. Moreover, the concentration at half-maximal activity (AC50) under setting [2] is 0.461 µM [rising, full curve, poor fit]. In addition, the AC50 under setting [1] is 0.82 µM [rising, partial curve]. `Cc1cc(C)nc(/N=C(\N)Nc2ccc(CC(=O)OC(C)C)cc2)n1`: the cell number change was -11.1%. The AC50 under setting [1] was 20.6 µM [falling, partial curve].

For `O=C(Cn1cc([N+](=O)[O-])cn1)N1CCN(Cc2ccc3c(c2)OCO3)CC1`, the cell number change was -31.4%. The AC50 under setting [2] was 0.231 µM [falling, full curve, poor fit]. In the case of `Cc1cc(C)nc(-n2nc(C)c(C3(O)C(=O)Nc4ccc(F)cc43)c2N)n1` (stereo unspecified), the cell number change is -4.19%. For the same compound, the AC50 under setting [1] is 0.731 µM [falling, single point]. As to `Cc1ccc(NC(=O)c2cc(S(=O)(=O)NCCc3ccccc3)ccc2F)cc1Cl`, the cell number change was -22.4%. For the same compound, the AC50 under setting [1] is 29.1 µM [falling, single point].

Take `CCOC(=O)Cc1csc(NC(=O)Nc2cccc(Cl)c2)n1`: the cell number change amounted to 37.3%. Besides, the AC50 under setting [2] is 11.6 µM [rising, partial curve, poor fit]. For the same compound, under setting [1], the AC50 is 16.4 µM [rising, partial curve]. Take `O=C(NNC(=S)NCc1ccccc1)c1cccc([N+](=O)[O-])c1`: the cell number change is -39.4%. Further, the AC50 under setting [2] was 16.4 µM [falling, partial curve]. The AC50 under setting [1] was 7.31 µM [falling, single point]. Take `Cc1cc(C(=O)NCc2ccccc2Br)no1`: the cell number change came out at 1.12%. Regarding `CCOC(=O)C1CCN(C(=O)COC(=O)CSc2ccc(C(N)=O)cc2[N+](=O)[O-])CC1`, the cell number change was -11%. The half-maximal activity concentration (AC50) under setting [1] is 0.82 µM [rising, single point].

Consider `COc1ccc2c3n(nc2c1)CCN=C3c1ccc(C)cc1`, for which the cell number change turned out to be 5.55%. Moreover, the AC50 under setting [1] is 29.1 µM [rising, single point]. Consider `N/C(=N\OS(=O)(=O)c1ccccc1)c1cccnc1`, for which the cell number change was determined as 96.8%. Besides, the AC50 under setting [2] was 18.4 µM [rising, single point]. Under setting [1], the AC50 is 4.11 µM [rising, full curve]. Regarding `CCn1nnnc1SCC(=O)N1CCCCC1`, the cell number change was -23.7%. As to `CCOC(=O)C1=C(C)Nc2ccccc2N=C1NC(=O)c1ccc(Cl)c(S(=O)(=O)N2CCCC2)c1`, the cell number change is -20.2%. Under setting [2], the AC50 was 0.082 µM [falling, partial curve, poor fit]. The AC50 under setting [1] was 0.0731 µM [falling, partial curve, poor fit]. As for `O=C(CSc1nnc(-c2ccncc2)o1)N1CCc2ccccc2C1`, under setting [2], the AC50 was 6.51 µM [rising, single point].

On to `O=S(=O)(c1ccccc1)N1CCn2c(nc3ccccc32)C1`, for which the cell number change came to 6.15%. Consider `COCc1cc(=O)n2[nH]c(SC)nc2n1`, for which the cell number change is -37.1%. In addition, the AC50 under setting [1] was 10.3 µM [falling, partial curve]. With `CCOC(=O)Cn1c(=O)oc2cc(S(=O)(=O)NC3CCCc4ccccc43)ccc21` (stereo unspecified), the cell number change came out at 7.76%. For the same compound, the AC50 under setting [1] was 14.6 µM [rising, single point].

Regarding `Cn1nccc1C(=O)N1CCCC(N2CCN(c3cccc(C(F)(F)F)c3)CC2)C1` (stereo unspecified), the cell number change was found to be 20.2%. Also, the concentration at half-maximal activity (AC50) under setting [2] was 0.291 µM [rising, full curve, poor fit]. Also, the concentration at half-maximal activity (AC50) under setting [1] is 29.1 µM [rising, single point]. For `S=C(c1ccc(-c2ccc(Cl)cc2Cl)o1)N1CCCCC1`, the cell number change was -106%. In addition, under setting [2], the AC50 is 29.1 µM [falling, single point]. Also, under setting [1], the AC50 was 29.1 µM [falling, single point].
